Reference: the supplement of paper PMC4604168 (melanoma cell lines)
This is one part of the list. Many values rest on one well or one pass, so single values are uncertain.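 Imaging used 1,536-well plates; nuclei positive for cleaved PARP by antibody were divided by total DNA-stained nuclei to yield the apoptosis fraction. Doses for screening kept most cells viable, and cell lines differ markedly in resting and induced cleaved-PARP levels.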

What was measured:
Assay in all cases: cleaved PARP positive nuclei fraction relative to DMSO control; melanoma cells; higher = more apoptosis
Settings in all cases: library dose: low library concentration; 72 h
501Mel = system: 501Mel
A101D = system: A101D
A2058 = system: A2058
A375 = system: A375
C32 = system: C32
CBRC008 = system: CBRC008 (line from a melanoma biopsy)
CBRC013 = system: CBRC013 (line from a melanoma biopsy)
CBRC014 = system: CBRC014 (line from a melanoma biopsy)
CBRC016 = system: CBRC016 (line from a melanoma biopsy)
CBRC017 = system: CBRC017 (line from a melanoma biopsy)
COLO792 = system: COLO792
COLO800 = system: COLO800
COLO829 = system: COLO829
G361 = system: G361
IPC-298 = system: IPC-298
IST-MEL1 = system: IST-MEL1
LB2518-MEL = system: LB2518-MEL
LOXIMVI = system: LOXIMVI
MEL-HO = system: MEL-HO

SMILES	cleaved PARP positive nuclei fraction (501Mel)	cleaved PARP positive nuclei fraction (A101D)	cleaved PARP positive nuclei fraction (A2058)	cleaved PARP positive nuclei fraction (A375)	cleaved PARP positive nuclei fraction (C32)	cleaved PARP positive nuclei fraction (CBRC008)	cleaved PARP positive nuclei fraction (CBRC013)	cleaved PARP positive nuclei fraction (CBRC014)	cleaved PARP positive nuclei fraction (CBRC016)	cleaved PARP positive nuclei fraction (CBRC017)	cleaved PARP positive nuclei fraction (COLO792)	cleaved PARP positive nuclei fraction (COLO800)	cleaved PARP positive nuclei fraction (COLO829)	cleaved PARP positive nuclei fraction (G361)	cleaved PARP positive nuclei fraction (IPC-298)	cleaved PARP positive nuclei fraction (IST-MEL1)	cleaved PARP positive nuclei fraction (LB2518-MEL)	cleaved PARP positive nuclei fraction (LOXIMVI)	cleaved PARP positive nuclei fraction (MEL-HO)
NC(=O)c1ccc(N(C(N)=O)c2c(F)cccc2F)nc1-c1ccc(F)cc1F + CC(C)(C)c1cnc(CSc2cnc(NC(=O)C3CCNCC3)s2)o1 [SNS-032] (first compound 0.4 µM, partner dose 0.01 µM)	58.8%	91.9%	121%	220%	18.7%	163%	174%	77.3%	93.1%	200%	120%	204%	97.1%	68.9%	89.1%	92.8%	259%	343%	30.1%
COc1ccc(C2=N[C@@H](c3ccc(Cl)cc3)[C@@H](c3ccc(Cl)cc3)N2C(=O)N2CCNC(=O)C2)c(OC(C)C)c1 [Nutlin-3] + CC(C)(C)c1cnc(CSc2cnc(NC(=O)C3CCNCC3)s2)o1 [SNS-032] (first compound 0.1 µM, partner dose 0.01 µM)	99.5%	99.1%	48.7%	78.7%	173%	166%	139%	82.8%	128%	96.9%	73.9%	179%	87.9%	155%	188%	90.6%	104%	31.6%	76.3%
C[C@]1(O)C[C@@H](c2nc(-c3ccc4ccc(-c5ccccc5)nc4c3)c3c(N)nccn32)C1 + NC(=O)Nc1cc(-c2cccc(F)c2)sc1C(=O)N[C@H]1CCCNC1 [AZD7762] (first compound 0.4 µM, partner dose 0.02 µM)	88.4%	43.6%	55.6%	769%	368%	40%	78.8%	111%	89.4%	116%	40.2%	294%	71.3%	92.5%	90.2%	26.9%	97.5%	117%	88.2%
C[C@@H](N)c1ccc(C(=O)Nc2ccnc3[nH]ccc23)cc1 + Cc1cc(N2CCOCC2)cc2[nH]c(-c3c(NC[C@@H](O)c4cccc(Cl)c4)cc[nH]c3=O)nc12 [BMS536924] (first compound 0.4 µM, partner dose 0.2 µM)	81%	226%	48.7%	67.5%	75.6%	235%	97.4%	85%	158%	162%	211%	60.5%	57.2%	153%	252%	108%	170%	102%	86.9%
C[C@@H](N)c1ccc(C(=O)Nc2ccnc3[nH]ccc23)cc1 + NC(=O)Nc1cc(-c2cccc(F)c2)sc1C(=O)N[C@H]1CCCNC1 [AZD7762] (first compound 0.4 µM, partner dose 0.02 µM)	50%	53.3%	41.8%	878%	220%	128%	93.9%	94.3%	233%	72.2%	221%	124%	141%	137%	40.4%	92.3%	60.1%	85.7%	75.6%
Cn1sc(=O)n(Cc2ccccc2)c1=O + Cn1cncc1[C@@](N)(c1ccc(Cl)cc1)c1ccc2c(c1)c(-c1cccc(Cl)c1)cc(=O)n2C [tipifarnib] (first compound 0.4 µM, partner dose 0.01 µM)	265%	59.6%	66%	217%	83.6%	127%	145%	97.3%	72.9%	64.3%	38.4%	153%	73.2%	119%	43.3%	63.8%	86.6%	52%	127%
Cn1sc(=O)n(Cc2ccccc2)c1=O + Cc1cc(N2CCOCC2)cc2[nH]c(-c3c(NC[C@@H](O)c4cccc(Cl)c4)cc[nH]c3=O)nc12 [BMS536924] (first compound 0.4 µM, partner dose 0.2 µM)	89.3%	130%	95.8%	188%	116%	186%	122%	93.7%	68.4%	106%	179%	199%	165%	205%	47.2%	115%	95.7%	61.5%	34.2%
CCCCCCCCc1ccc(CCC(N)(CO)CO)cc1 [fingolimod] + OCCn1cc(-c2cnc3nnn(Cc4ccc5ncccc5c4)c3n2)cn1 [PF04217903] (first compound 2 µM, partner dose 1 µM)	56.7%	79.5%	53%	473%	84.5%	158%	90.4%	97.1%	72.7%	99%	103%	65.7%	115%	73.2%	59.8%	93.4%	49.8%	37%	47.5%
CC(=O)O[C@@]12CO[C@@H]1C[C@H](O)[C@@]1(C)C(=O)[C@H](O)C3=C(C)[C@@H](OC(=O)[C@H](O)[C@@H](NC(=O)OC(C)(C)C)c4ccccc4)C[C@@](O)([C@@H](OC(=O)c4ccccc4)[C@H]21)C3(C)C [Docetaxel] + O=C(Nc1cccc(Cl)c1)Nc1ncc(CCNc2ncnc3ccsc23)s1 [SNS314] (first compound 0.0001 µM, partner dose 0.0008 µM)	117%	103%	4450%	6250%	377%	66.5%	160%	128%	169%	119%	178%	354%	223%	257%	540%	101%	81.3%	86.1%	108%
NC1(c2ccc(-c3nc4ccn5c(=O)[nH]nc5c4cc3-c3ccccc3)cc2)CCC1 + C[C@@H]1CCN(C(=O)CC#N)C[C@@H]1N(C)c1ncnc2[nH]ccc12 [CP690550] (first compound 0.4 µM, partner dose 1 µM)	83%	47.1%	194%	151%	125%	45%	97.6%	87.3%	118%	93.2%	222%	18.6%	157%	64.6%	148%	113%	50.8%	38.9%	98.7%
C[C@@H](N)c1ccc(C(=O)Nc2ccnc3[nH]ccc23)cc1 + O=C(CCCCCCC(=O)Nc1ccccc1)NO [vorinostat] (first compound 0.4 µM, partner dose 0.08 µM)	40.1%	80.2%	159%	30.5%	105%	52.4%	108%	96.2%	208%	99.2%	192%	58.1%	123%	75.8%	45.1%	68.9%	22.5%	398%	185%
C[C@]1(O)C[C@@H](c2nc(-c3ccc4ccc(-c5ccccc5)nc4c3)c3c(N)nccn32)C1 + O=C(CCCCCCC(=O)Nc1ccccc1)NO [vorinostat] (first compound 0.4 µM, partner dose 0.08 µM)	322%	76.6%	230%	75.9%	118%	127%	132%	91.6%	109%	136%	47.7%	229%	203%	121%	48.5%	321%	132%	166%	148%
C[C@@H](N)c1ccc(C(=O)Nc2ccnc3[nH]ccc23)cc1 + CO[C@@H]1[C@H](N(C)C(=O)c2ccccc2)C[C@H]2O[C@]1(C)n1c3ccccc3c3c4c(c5c6ccccc6n2c5c31)C(=O)NC4 [Midostaurin] (first compound 0.4 µM, partner dose 0.08 µM)	72.1%	66.5%	72.4%	81.7%	73.3%	84.9%	157%	95.8%	208%	117%	218%	54.8%	158%	332%	412%	56.2%	77.7%	63.4%	165%
CS(=O)(=O)c1ccc(C(=O)Nc2ccc(Cl)c(-c3ccccn3)c2)c(Cl)c1 [vismodegib] + Cc1ccc(NC(=O)c2cccc(N(C)C)c2)cc1NC(=O)c1ccc(O)cc1 [ZM336372] (first compound 1 µM, partner dose 2 µM)	70.2%	76.6%	103%	28.7%	227%	72%	76.6%	106%	145%	80.9%	20.6%	59.9%	49.8%	72.8%	64.3%	276%	94.2%	61.6%	281%
CCN(CC)CCNC(=O)c1c(C)[nH]c(/C=C2\C(=O)Nc3ccc(F)cc32)c1C [sunitinib] + O=C(CCCCCCC(=O)Nc1ccccc1)NO [vorinostat] (first compound 0.4 µM, partner dose 0.08 µM)	202%	182%	64.1%	127%	87.4%	50.4%	239%	83.8%	114%	98.3%	20.9%	110%	176%	84.3%	47.3%	148%	125%	110%	40.4%
NC(=O)c1ccc(N(C(N)=O)c2c(F)cccc2F)nc1-c1ccc(F)cc1F + CO[C@@H]1[C@H](N(C)C(=O)c2ccccc2)C[C@H]2O[C@]1(C)n1c3ccccc3c3c4c(c5c6ccccc6n2c5c31)C(=O)NC4 [Midostaurin] (first compound 0.4 µM, partner dose 0.08 µM)	107%	93.8%	171%	69.5%	84.2%	83.8%	161%	80.7%	79.9%	112%	44.8%	248%	124%	156%	64.1%	102%	85.7%	89.9%	215%
CCN(CC)CCNC(=O)c1c(C)[nH]c(/C=C2\C(=O)Nc3ccc(F)cc32)c1C [sunitinib] + COc1cc(Nc2ncc(F)c(Nc3ccc4c(n3)NC(=O)C(C)(C)O4)n2)cc(OC)c1OC [Tamatinib] (first compound 0.4 µM, partner dose 0.4 µM)	106%	188%	159%	96.2%	78.8%	293%	304%	83.7%	97.8%	90%	351%	159%	113%	85.7%	61.3%	50%	67.5%	316%	82.5%
Cn1sc(=O)n(Cc2ccccc2)c1=O + CN(NC(=O)CC(=O)NN(C)C(=S)c1ccccc1)C(=S)c1ccccc1 [STA4783] (first compound 0.4 µM, partner dose 0.006 µM)	234%	88.4%	119%	4570%	623%	1980%	101%	556%	281%	528%	125%	53.4%	104%	97.4%	94.5%	258%	241%	337%	146%

Two neighbouring entries already listed, for reference:
SMILES	cleaved PARP positive nuclei fraction (501Mel)	cleaved PARP positive nuclei fraction (A101D)	cleaved PARP positive nuclei fraction (A2058)	cleaved PARP positive nuclei fraction (A375)	cleaved PARP positive nuclei fraction (C32)	cleaved PARP positive nuclei fraction (CBRC008)	cleaved PARP positive nuclei fraction (CBRC013)	cleaved PARP positive nuclei fraction (CBRC014)	cleaved PARP positive nuclei fraction (CBRC016)	cleaved PARP positive nuclei fraction (CBRC017)	cleaved PARP positive nuclei fraction (COLO792)	cleaved PARP positive nuclei fraction (COLO800)	cleaved PARP positive nuclei fraction (COLO829)	cleaved PARP positive nuclei fraction (G361)	cleaved PARP positive nuclei fraction (IPC-298)	cleaved PARP positive nuclei fraction (IST-MEL1)	cleaved PARP positive nuclei fraction (LB2518-MEL)	cleaved PARP positive nuclei fraction (LOXIMVI)	cleaved PARP positive nuclei fraction (MEL-HO)
NC(=O)c1ccc(N(C(N)=O)c2c(F)cccc2F)nc1-c1ccc(F)cc1F + CO[C@@H]1[C@H](N(C)C(=O)c2ccccc2)C[C@H]2O[C@]1(C)n1c3ccccc3c3c4c(c5c6ccccc6n2c5c31)C(=O)NC4 [Midostaurin] (first compound 0.4 µM, partner dose 0.08 µM)	107%	93.8%	171%	69.5%	84.2%	83.8%	161%	80.7%	79.9%	112%	44.8%	248%	124%	156%	64.1%	102%	85.7%	89.9%	215%
CCN(CC)CCNC(=O)c1c(C)[nH]c(/C=C2\C(=O)Nc3ccc(F)cc32)c1C [sunitinib] + COc1cc(Nc2ncc(F)c(Nc3ccc4c(n3)NC(=O)C(C)(C)O4)n2)cc(OC)c1OC [Tamatinib] (first compound 0.4 µM, partner dose 0.4 µM)	106%	188%	159%	96.2%	78.8%	293%	304%	83.7%	97.8%	90%	351%	159%	113%	85.7%	61.3%	50%	67.5%	316%	82.5%
